Experiment: High-throughput (direct-to-biology) human liver microsomal stability assay
[1] = both, human, microsomes, pH 7.4

Structure (SMILES): CC(C)NCC(O)COc1ccc(CC(N)=O)cc1 (stereo not shown) [Atenolol]
- %Change After 60 min (%remaining after LSS minus before LSS at 60 min, human liver microsomes): 1.71%
- remaining at 0.25 h, 105 µM [1]: 90.6%
- remaining at 0.5 h, 105 µM [1]: 82.5%
- remaining at 1 h, 105 µM [1]: 75.8%
